In paper PMC10564934:
No constants are given. Whether binding was seen depends on the method and setting. Binding seen in cells or lysates may run through a third protein. A yes stands for co-enrichment or nearness to the bait. Other partners may have been found. Where a sequence is shown, tags or fusion partners need not be part of it.

Amino acid sequences for entries named in this document (tags omitted).
UniProt Q86TM6: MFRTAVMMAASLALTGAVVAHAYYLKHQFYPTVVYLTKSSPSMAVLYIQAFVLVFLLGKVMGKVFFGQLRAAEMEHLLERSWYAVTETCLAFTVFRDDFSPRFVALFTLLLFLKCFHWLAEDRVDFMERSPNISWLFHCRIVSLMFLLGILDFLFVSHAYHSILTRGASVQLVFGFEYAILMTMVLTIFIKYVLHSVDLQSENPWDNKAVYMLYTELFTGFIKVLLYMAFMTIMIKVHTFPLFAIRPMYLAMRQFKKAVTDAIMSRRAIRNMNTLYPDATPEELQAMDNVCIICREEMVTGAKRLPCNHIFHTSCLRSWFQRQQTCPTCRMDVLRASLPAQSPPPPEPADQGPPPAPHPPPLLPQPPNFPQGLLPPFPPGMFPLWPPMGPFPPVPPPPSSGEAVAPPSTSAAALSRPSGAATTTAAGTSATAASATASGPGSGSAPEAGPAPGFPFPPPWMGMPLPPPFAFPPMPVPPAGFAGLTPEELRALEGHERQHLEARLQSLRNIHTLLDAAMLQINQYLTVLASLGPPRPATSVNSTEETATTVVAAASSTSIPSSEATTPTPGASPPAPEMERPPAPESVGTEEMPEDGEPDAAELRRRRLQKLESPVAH

Target: T1, Flag-tagged MCT4 (monocarboxylate transporter 4), full length (UniProt O15427)
T1 sequence: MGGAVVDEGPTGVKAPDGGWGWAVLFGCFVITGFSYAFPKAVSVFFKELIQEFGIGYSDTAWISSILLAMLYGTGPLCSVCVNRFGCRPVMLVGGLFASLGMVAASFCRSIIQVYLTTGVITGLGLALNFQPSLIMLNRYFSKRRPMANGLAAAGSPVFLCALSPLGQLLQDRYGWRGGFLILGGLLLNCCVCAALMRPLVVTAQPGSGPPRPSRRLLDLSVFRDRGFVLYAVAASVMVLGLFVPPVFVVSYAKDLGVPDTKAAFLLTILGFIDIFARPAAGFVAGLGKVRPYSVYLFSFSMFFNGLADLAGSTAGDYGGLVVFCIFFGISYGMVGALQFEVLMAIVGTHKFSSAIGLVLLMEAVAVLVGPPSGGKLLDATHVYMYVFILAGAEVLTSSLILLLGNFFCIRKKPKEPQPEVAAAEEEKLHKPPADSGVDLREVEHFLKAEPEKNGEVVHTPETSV
Test: affinity purification with mass spectrometry; cellular extracts of Flag-MCT4-expressing HEK293T cells purified with anti-Flag affinity beads, eluted with Flag peptide, SDS-PAGE, silver stain, bands analysed by LC-MS/MS

With “SYVN1 (Synoviolin 1), endogenous (from UniProt Q86TM6 1-617) (enzyme)” the binding was “binds”.
